Measurements as given in patent publication US20050055741, “Plant transcriptional repressor, proteic nuclear factors binding thereto, and uses thereof” (published 2005).
For some of these results: The comparison behind a weaker result is the experiment's own reference, which may not be listed here. Tags and fusion partners may be left off the protein sequences shown. For some of these results: Results from cells or extracts need not show a direct contact. For some of these results: No signal at the amounts used counts as a negative.

Columns and labels:
Assay in all cases: EMSA
[1] = test system: T1, SEBF (native, crude nuclear extract) (Solanum tuberosum); details: protein in an extract
T1 sequence: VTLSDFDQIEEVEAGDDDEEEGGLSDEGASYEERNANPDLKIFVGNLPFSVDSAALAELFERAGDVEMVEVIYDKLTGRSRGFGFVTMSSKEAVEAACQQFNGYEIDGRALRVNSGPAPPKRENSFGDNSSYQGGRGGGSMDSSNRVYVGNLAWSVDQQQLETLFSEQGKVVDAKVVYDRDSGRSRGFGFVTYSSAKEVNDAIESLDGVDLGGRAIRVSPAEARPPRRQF

[2] = test system: T2, SEBF (400 mM Q-Sepharose fraction) (Solanum tuberosum); details: protein in an extract, label: 32P, single-stranded DNA
T2 sequence: T1 sequence

[3] = test system: T3, SEBF (recombinant) (Solanum tuberosum); details: purified recombinant protein, label: 32P, single-stranded DNA, variant of PR-10a SE coding strand WT
T3 sequence (limits assumed): T1 sequence

[4] = dramatically reduced, label: 32P, single-stranded DNA, variant of SE WT (fine mapping)
[5] = significantly reduced, label: 32P, single-stranded DNA, variant of PR-10a SE coding strand WT
[6] = specificity stated similar to native SEBF
[7] = mutation outside site, not affected, label: 32P, single-stranded DNA, variant of SE WT (fine mapping)

TCTAGACTACCACTTGTTTTTTTT [SE m9]
binding result [1, 4]: binds more weakly

TCTAGACTGTCAAGTGTTTTTTTT [SE m11]
binding result [1, 4]: binds more weakly

TCTAGACTGTCACTTGTTTTTTTTA [PR-10a oligo (FIG. 9)]
binding result [2]: binds

CATGGACTGTCACTTGTTTTTTTTA [SE m2]
binding result ([1]; slight increase vs WT, label: 32P, single-stranded DNA, variant of PR-10a SE coding strand WT): binds

TAAGCCATGTCTCCATCATCT [CHN50 WT (FIG. 12)]
binding result [2]: binds

TCTAGACTGACACTTGTTTTTTTT [SE m16]
binding result [1, 4]: binds more weakly

TCTAGACTGTGACTTGTTTTTTTT [SE m17]
binding result [1, 4]: binds more weakly

TCTAGACTATCACTTGTTTTTTTT [SE m15]
binding result [1, 4]: binds more weakly

TCTAGATCGAATTCCGCTCGACCGG [SE m1]
binding result ([1]; binding completely abolished, label: 32P, single-stranded DNA, variant of PR-10a SE coding strand WT): no binding

AACATCTGCTTTGTCACCCTCCTTG [ChtC2 chitinase oligo]
binding result [2]: binds

TCTAGACTGTCACTGTTTTTTTTT [SE m12]
binding result ([1]; not affected, label: 32P, single-stranded DNA, variant of SE WT (fine mapping)): binds

TCTAGAAGGTCACTTGTTTTTTTT [SE m8]
binding result [1, 4]: binds more weakly

TCTAGACTGTCACTTGTTTTTTTTA [PR-10a SE coding strand WT]
binding result ([1]; poly(dI-dC), 200 mM NaCl, Tris pH 7.5, EDTA, on ice, label: 32P, single-stranded DNA): binds

TCTAGAAGATCACTTGTTTTTTTTA [SE m3]
binding result [1, 5]: binds more weakly | binding result [3, 6]: binds more weakly

TCTAGACTGTCGAGTGTTTTTTTTA [SE m4]
binding result [1, 5]: binds more weakly | binding result ([3]; less affinity than WT): binds more weakly

TCTATCCTGTCACTTGTTTTTTTT [SE m7]
binding result [1, 7]: binds

TCTAGACTGTCACGTGTTTTTTTT [SE m20]
binding result [1, 7]: binds

TCTAGACTGTCACTTGTTTTTTTT [SE WT (fine mapping)]
binding result ([1]; label: 32P, single-stranded DNA): binds

TCTAGACTGTCACAACTTTTTTTTA [SE m5]
binding result ([1]; slight decrease, label: 32P, single-stranded DNA, variant of PR-10a SE coding strand WT): binds more weakly | binding result [3, 6]: binds more weakly

TCTAGAATGTCACTTGTTTTTTTT [SE m13]
binding result ([1]; first C to A reduces binding, label: 32P, single-stranded DNA, variant of SE WT (fine mapping)): binds more weakly

TCTAGACGGTCACTTGTTTTTTTT [SE m14]
binding result [1, 4]: binds more weakly

TCGCGACTGTCACTTGTTTTTTTT [SE m6]
binding result [1, 7]: binds

ATTAAGCCATGTCTCCATCATCTTC [CHN50 chitinase oligo]
binding result [2]: binds

TAAGCCATATCTCCATCATCT [CHN50 M2]
binding result ([2]; M2 abolishes binding, variant of CHN50 WT (FIG. 12)): no binding

TCTAGACTGTCACTTGTTTTTTTTA (double strand) [PR-10a SE double-stranded]
binding result ([1]; label: 32P on non-coding strand, variant of PR-10a SE coding strand WT): no binding
